According to PMC10058949 (Pharmaceutics, 2023):

Assay: general procedure: Fmoc solid-phase peptide synthesis
Conditions: whole synthesis, RP-HPLC with UV chromatograms; MALDI-TOF MS, scale of the general procedure 100 mg resin

Substance	final HPLC purity [%]
DOTA-(DGlu)6-Ala-Tyr-Gly-Trp-(N-Me)Nle-Asp-1Nal-NH2	≥98
DOTA-(GABOB)2-βAla-Trp-(N-Me)Nle-Asp-1Nal-NH2	≥98
